The values that follow come from the supplement of paper PMC5407854, “Inhibitor of ppGalNAc-T3-mediated O-glycosylation blocks cancer cell invasiveness and lowers FGF23 levels” (eLife, 2017).

In all, about 1,700 compounds were measured (“T2 sensor activation Q score (MG/GFP ratio z-score vs DMSO controls)”: median about 0.3, highest 2% from about 1.9 on). This is one part of the list.

In the assay the test system is ppGalNAc-T2 sensor. The assay can be described thus: T2 sensor activation Q score (MG/GFP ratio z-score vs DMSO controls) (SD units); higher = more sensor activation (inhibition of ppGalNAc-T2 glycosylation). The conditions noted are these: HEK293 sensor cells; 10 µM; 6 h. How it is done: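 Cells were treated with compound at 10 uM for 6 h, then MG/GFP ratio was read by flow cytometry (10,000 cells per well, duplicate wells). Q = (R - R_neg)/SD_neg relative to DMSO vehicle controls; the signal rises when the glycosyltransferase is inhibited.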
Turning to `CCOP(=O)(OCC)/C(C#N)=C/c1ccc(-c2ccc(F)cc2F)o1`, the “T2 sensor activation Q score” value is -0.9.

For `CC(C)n1cc(C#N)c(N)n1`, the “T2 sensor activation Q score” value amounted to 1.55. Consider `O=[N+]([O-])c1ccc2[nH]c3nc4ccccc4nc3c2c1`, for which the “T2 sensor activation Q score” value worked out at 0.95. Take `O=C(O)CSc1ccc(NC(=O)Nc2ccccc2F)cc1`: the “T2 sensor activation Q score” value turned out to be 0.4. With `COCC(=O)Oc1cc(-c2ccc(C)cc2C)c(OC(=O)COC)c(-c2ccc(C)cc2C)c1` the figure was 0.9; with `CC(C)c1ncc(CO)n1Cc1c(Cl)cccc1Cl`, 0.65; with `Cc1cc(O)cc2c1[C@H]1CC[C@]3(C)C(=O)CC[C@H]3[C@@H]1C=C2`, 1.25. Consider `O=C(O)Cc1ccc(N=Nc2c(O)c(C(=O)O)cc3ccccc23)cc1`, for which the “T2 sensor activation Q score” value stood at 1.2.

Consider `NS(=O)(=O)c1ccc(NC(=S)NC(=O)c2ccco2)cc1`, for which the “T2 sensor activation Q score” value was found to be 1.85. On to `CC(C)CNC(=O)/C=C\C(=O)O`, for which the “T2 sensor activation Q score” value is -1.85. As to `CS(=O)(=O)OCCCCOS(C)(=O)=O`, the “T2 sensor activation Q score” value is -0.8. With `CC(=O)Oc1ccc2cc(-c3ccccc3)c(=O)oc2c1` the figure was 1.35; with `COc1ccc(NC(=O)N2CCN(C(=O)Nc3ccc(OC)cc3)CC2)cc1`, 0.45. Take `Cn1ncc2c(NCc3ccccc3)ncnc21`: the “T2 sensor activation Q score” value is 1.3.

In the case of `O=C(C=Cc1ccc(O)c(O)c1)c1ccccc1O`, the “T2 sensor activation Q score” value is -0.4. The same measure for `S=c1nc[nH]c2c1cnn2-c1ccccc1`: 0.2. As for `c1ccc(N=NN2CCOCC2)cc1`, the “T2 sensor activation Q score” value was -0.25. Turning to `Clc1ccccc1/C=C/c1ccnc2ccccc12`, the “T2 sensor activation Q score” value is 0.15.

With `CC1=CC(=C2C=CC(=O)C=C2)C=C(C)N1C`, the “T2 sensor activation Q score” value worked out at 0.15. Take `CCNc1nc(Cl)nc(-c2cn(-c3ccccc3)c3ccccc23)n1`: the “T2 sensor activation Q score” value is -0.1. With `O=C1CC(c2ccc(O)cc2)Oc2cc(O)cc(O)c21` (configuration not stated), the “T2 sensor activation Q score” value amounted to 0.75. In the case of `O=C(Nc1cccc(Cl)c1)Nc1nccs1`, the “T2 sensor activation Q score” value was determined as 0.95. As to `CCC(C)NC(=O)c1cccc(C)c1` (configuration not stated), the “T2 sensor activation Q score” value was 1.85. Consider `CN(C)c1ccc(/C=C(\C#N)C(=O)c2ccccc2)cc1`, for which the “T2 sensor activation Q score” value was -0.3.

For the molecule `COc1ccccc1NC(=O)Nc1cc(C(C)C)ccc1C`, the “T2 sensor activation Q score” value was -0.25.

In the case of `COc1cccc2c1C(=O)c1c(O)c3c(c(O)c1C2=O)C[C@@](O)(C(C)=O)C[C@@H]3O[C@H]1C[C@H](N)[C@H](O)[C@H](C)O1`, the “T2 sensor activation Q score” value is -3.15. Take `CNC(=O)c1cc(Oc2ccc(NC(=O)Nc3ccc(Cl)c(C(F)(F)F)c3)cc2)ccn1`: the “T2 sensor activation Q score” value was -0.85. Turning to `Cc1c([N+](=O)[O-])oc2c1C(=O)NCCC2`, the “T2 sensor activation Q score” value stood at 1.05. For `CN(c1cccnc1)c1ncnc2[nH]ncc12`, the “T2 sensor activation Q score” value was found to be 1.15. On to `Cc1ccc(Nc2nc(Cl)nc3ncn(C)c23)c(C)c1`, for which the “T2 sensor activation Q score” value was determined as 0.55. For the molecule `COc1ccc([N+](=O)[O-])cc1NS(=O)(=O)c1ccc(C)cc1`, the “T2 sensor activation Q score” value was -0.4. On to `Cc1ccc(Nc2nnc(-c3ccc4c(c3)OCO4)o2)c(C)c1`, for which the “T2 sensor activation Q score” value turned out to be 0.5. On to `Oc1[nH]c(N=C2N=c3ccccc3=N2)c2ccccc12`, for which the “T2 sensor activation Q score” value is -0.35. As for `C[C@@H]1C[C@H]2OC(=O)[C@@]3(C)CCC[C@@](C)([C@@H]23)[C@@]1(O)CCc1ccoc1`, the “T2 sensor activation Q score” value is -1.85.

In the case of `O=C(NC(=S)Nc1ccccn1)c1ccccc1`, the “T2 sensor activation Q score” value is -1.25. Take `Cn1ncc2c(Nc3ccc(O)cc3)nc(Cl)nc21`: the “T2 sensor activation Q score” value was found to be 0.25.

On to `CSC1=NC=C(C#N)C2=NC(c3ccc(Cl)cc3)NN12` (configuration not stated), for which the “T2 sensor activation Q score” value was found to be 2.45.

For `O=c1[nH]c(=S)c2[nH]c(=S)n(-c3ccccc3)c2[nH]1`, the “T2 sensor activation Q score” value was 0.85.

In the case of `COC1CC(C)C(OC)c2cc(O)cc(c2O)NC(=O)/C(C)=C/C=C\C(C)C(OC(N)=O)/C(C)=C/C(C)C1OC` (configuration not stated), the “T2 sensor activation Q score” value is 1.05.

Take `Cc1ccc(-c2cssc2=S)cc1`: the “T2 sensor activation Q score” value was 1.05. With `O=C(c1ccccc1)c1ccc[nH]1`, the “T2 sensor activation Q score” value is -1.85. As for `Nc1ccc(C(=O)Nc2ccc(NC(=O)c3ccco3)c(O)c2)cc1`, the “T2 sensor activation Q score” value was -0.3. Turning to `Cc1ccc(S(=O)(=O)Oc2cc(N)c3c(n2)CCC3)cc1`, the “T2 sensor activation Q score” value came to 0.3.

Turning to `COC(=O)c1ccccc1NCCO`, the “T2 sensor activation Q score” value is -0.65. With `Cc1cc(NC(=O)Nc2cc(F)ccc2F)no1`, the “T2 sensor activation Q score” value was 0.4. With `O=C(CN1CCCC1)Nc1nc(-c2ccc(Cl)cc2)cs1` the figure was -1.45; with `COc1cc2c(cc1OC)C(C1(O)CCCCC1)NCC2` (configuration not stated), -1.6; with `O=S(=O)(Oc1ccc(Cl)cc1)c1cccc2cccnc12`, -2.

As for `Cc1nn(-c2ccccc2)c2c1C(c1ccc([N+](=O)[O-])cc1)C(C#N)=C(N)O2` (configuration not stated), the “T2 sensor activation Q score” value was -1.35. With `Nc1ccc(C(=O)c2cccs2)cn1` the figure was 0; with `CC(C)=CCC1=C(OCC(=O)O)C(=O)c2ccccc2C1=O`, 0.8. For the molecule `COc1cc([N+](=O)[O-])ccc1NC(=O)Oc1ccc(NC(C)=O)cc1`, the “T2 sensor activation Q score” value worked out at 0.6. With `O=C(Nc1ccc(Oc2ccc(NC(=O)Nc3ccccc3Cl)cc2)cc1)Nc1ccccc1Cl` the figure was 1; with `CC1(C)N=C(N)N=C(N)N1c1ccc(OCCCOc2ccccc2)c(Cl)c1`, -0.85. In the case of `O=C1OC(CN(Cc2ccccc2)Cc2ccccc2)CN1/N=C/c1ccc([N+](=O)[O-])o1` (configuration not stated), the “T2 sensor activation Q score” value is 0.1. For the molecule `CNC(=O)c1cc(Oc2ccc(NC(=O)Nc3ccc(Cl)c(C(F)(F)F)c3)c(F)c2)ccn1`, the “T2 sensor activation Q score” value was -1.75. `Cc1c(Cl)ccc2c(C(=O)O)cc(-c3ccccc3)nc12`: the “T2 sensor activation Q score” value came out at 0.6.
